Data on three molecules can be found in article PMC3819369.

Protein sequences, listed by entry. Tags and fused reporters are not part of them.
UniProt P49789: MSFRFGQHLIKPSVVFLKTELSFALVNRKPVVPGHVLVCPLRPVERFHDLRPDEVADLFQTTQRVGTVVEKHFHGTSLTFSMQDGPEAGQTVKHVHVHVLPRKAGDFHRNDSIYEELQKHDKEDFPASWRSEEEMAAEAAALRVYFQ

For test [1], the target named is T1, Annexin4-V5 (UniProt P09525).
T1 sequence: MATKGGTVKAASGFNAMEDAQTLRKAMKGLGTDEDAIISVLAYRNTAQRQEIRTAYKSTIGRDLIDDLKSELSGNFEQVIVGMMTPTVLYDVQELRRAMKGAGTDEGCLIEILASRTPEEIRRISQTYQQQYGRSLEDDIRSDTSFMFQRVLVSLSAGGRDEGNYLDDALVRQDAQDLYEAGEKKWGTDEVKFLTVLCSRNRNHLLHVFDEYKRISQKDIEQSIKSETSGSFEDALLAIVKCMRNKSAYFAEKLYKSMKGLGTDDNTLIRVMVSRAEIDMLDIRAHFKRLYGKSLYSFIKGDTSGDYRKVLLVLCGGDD
Put plainly: co-IP; A549 cells transiently transfected with Annexin4-V5, 48 h, treated with DSP; total lysates immunoprecipitated with anti-V5 antibody on Sepharose beads overnight at 4°C; immunoblot with anti-Fhit and anti-Annexin 4. On the technique in general: In western blotting, separated proteins are transferred to a membrane and probed.

In test [2] the target is Fhit-His6 recombinant protein (human) (UniProt P49789). Put plainly: co-IP; A549 cells infected with AdFHIT-wild type or AdFHIT-His6 at MOI50, 48 h, treated with DSP; total lysates enriched in membrane fraction (Mem-PER kit); 1 mg lysate with Ni-NTA agarose magnetic nickel beads overnight at 4°C; immunoblot with anti-Fhit and anti-Annexin A4.
In test [3] the target is endogenous Fhit (HEK293) (human (endogenous in HEK293)) (UniProt P49789). Put plainly: co-IP; HEK293 cells mock treated or treated with paclitaxel (800 nM, 24 h); endogenous proteins, without DSP cross-linker; total lysates immunoprecipitated with Fhit antibody (IgG as control), immunoblot with Annexin 4 antiserum.

No constants are given. Whether binding was seen depends on the method and setting. In cells and extracts the contact can be indirect. Some binding calls cover weakened binding; strength is not graded here. For part of these data: Sequences can lack the tags named with a protein.

Take “Fhit (detected in the anti-V5 immunoprecipitate from A549 cells, Figure 1B) (from UniProt P49789 1-147)”: the binding entry in test [1] is reported as “binds”.

B1: Annexin IV (PP4-X) (protein, UniProt P09525 1-319)
chain: MATKGGTVKAASGFNAMEDAQTLRKAMKGLGTDEDAIISVLAYRNTAQRQEIRTAYKSTIGRDLIDDLKSELSGNFEQVIVGMMTPTVLYDVQELRRAMKGAGTDEGCLIEILASRTPEEIRRISQTYQQQYGRSLEDDIRSDTSFMFQRVLVSLSAGGRDEGNYLDDALVRQDAQDLYEAGEKKWGTDEVKFLTVLCSRNRNHLLHVFDEYKRISQKDIEQSIKSETSGSFEDALLAIVKCMRNKSAYFAEKLYKSMKGLGTDDNTLIRVMVSRAEIDMLDIRAHFKRLYGKSLYSFIKGDTSGDYRKVLLVLCGGDD
B1: the binding result in test [2] is “binds”.

B2: endogenous Annexin 4 (HEK293) (protein, UniProt P09525 1-319)
chain: MATKGGTVKAASGFNAMEDAQTLRKAMKGLGTDEDAIISVLAYRNTAQRQEIRTAYKSTIGRDLIDDLKSELSGNFEQVIVGMMTPTVLYDVQELRRAMKGAGTDEGCLIEILASRTPEEIRRISQTYQQQYGRSLEDDIRSDTSFMFQRVLVSLSAGGRDEGNYLDDALVRQDAQDLYEAGEKKWGTDEVKFLTVLCSRNRNHLLHVFDEYKRISQKDIEQSIKSETSGSFEDALLAIVKCMRNKSAYFAEKLYKSMKGLGTDDNTLIRVMVSRAEIDMLDIRAHFKRLYGKSLYSFIKGDTSGDYRKVLLVLCGGDD
Turning to B2, the binding result in test [3] is “binds”.
